28 targets from the supplement of paper PMC12819154, “High-throughput peptide-centric local stability assay extends protein–ligand identification to membrane proteins, tissues and bacteria” (Nature Structural & Molecular Biology, 2025) can be followed below.

Amino acid sequences for entries named in this document (tags omitted). A change or cut given only in a name is not applied to a line headed by its entry.
UniProt Q9H169: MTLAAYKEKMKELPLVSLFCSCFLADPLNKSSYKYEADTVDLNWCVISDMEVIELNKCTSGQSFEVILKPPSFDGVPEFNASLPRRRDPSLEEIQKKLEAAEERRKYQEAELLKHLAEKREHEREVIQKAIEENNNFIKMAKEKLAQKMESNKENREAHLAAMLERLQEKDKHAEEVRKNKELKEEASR
UniProt Q9BWF3: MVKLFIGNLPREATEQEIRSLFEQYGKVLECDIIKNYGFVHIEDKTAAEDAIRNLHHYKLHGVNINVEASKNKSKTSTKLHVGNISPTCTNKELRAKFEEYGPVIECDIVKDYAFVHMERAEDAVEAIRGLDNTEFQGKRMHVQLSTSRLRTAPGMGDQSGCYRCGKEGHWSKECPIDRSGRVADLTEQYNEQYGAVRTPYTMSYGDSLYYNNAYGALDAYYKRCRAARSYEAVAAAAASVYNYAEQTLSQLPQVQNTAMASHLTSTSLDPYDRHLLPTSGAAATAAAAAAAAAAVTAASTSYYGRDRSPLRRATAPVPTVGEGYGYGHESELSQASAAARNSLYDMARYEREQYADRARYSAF
UniProt Q9BYX2: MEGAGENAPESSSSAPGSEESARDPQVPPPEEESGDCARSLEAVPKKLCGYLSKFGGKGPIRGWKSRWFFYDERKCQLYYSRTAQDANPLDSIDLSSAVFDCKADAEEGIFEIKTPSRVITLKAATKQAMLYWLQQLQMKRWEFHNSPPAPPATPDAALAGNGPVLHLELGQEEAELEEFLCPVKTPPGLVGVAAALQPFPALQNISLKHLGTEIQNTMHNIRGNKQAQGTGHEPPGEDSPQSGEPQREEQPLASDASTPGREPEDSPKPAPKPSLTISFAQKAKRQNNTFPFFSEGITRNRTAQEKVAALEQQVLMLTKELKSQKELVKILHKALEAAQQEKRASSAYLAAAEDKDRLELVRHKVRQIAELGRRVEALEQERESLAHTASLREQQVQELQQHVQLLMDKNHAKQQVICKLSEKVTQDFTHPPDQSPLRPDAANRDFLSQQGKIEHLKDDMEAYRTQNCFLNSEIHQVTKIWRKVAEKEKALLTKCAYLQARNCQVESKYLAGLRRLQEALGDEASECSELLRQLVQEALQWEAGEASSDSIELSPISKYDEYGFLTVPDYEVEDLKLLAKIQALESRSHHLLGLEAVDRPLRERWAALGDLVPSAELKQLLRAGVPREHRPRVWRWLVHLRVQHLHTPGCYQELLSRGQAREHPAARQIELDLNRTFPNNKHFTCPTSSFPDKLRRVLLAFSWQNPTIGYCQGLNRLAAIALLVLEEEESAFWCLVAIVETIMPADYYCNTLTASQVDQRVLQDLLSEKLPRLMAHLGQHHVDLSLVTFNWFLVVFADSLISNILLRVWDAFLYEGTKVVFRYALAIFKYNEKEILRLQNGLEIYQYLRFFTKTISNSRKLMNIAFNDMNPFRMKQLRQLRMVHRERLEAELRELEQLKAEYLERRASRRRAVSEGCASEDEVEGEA
UniProt Q9BWT6: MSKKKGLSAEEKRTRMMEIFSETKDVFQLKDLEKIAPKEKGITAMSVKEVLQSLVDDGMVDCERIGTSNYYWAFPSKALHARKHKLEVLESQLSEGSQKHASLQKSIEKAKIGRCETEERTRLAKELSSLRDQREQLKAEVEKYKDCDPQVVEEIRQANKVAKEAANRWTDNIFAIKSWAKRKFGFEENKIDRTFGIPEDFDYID
UniProt Q9H211: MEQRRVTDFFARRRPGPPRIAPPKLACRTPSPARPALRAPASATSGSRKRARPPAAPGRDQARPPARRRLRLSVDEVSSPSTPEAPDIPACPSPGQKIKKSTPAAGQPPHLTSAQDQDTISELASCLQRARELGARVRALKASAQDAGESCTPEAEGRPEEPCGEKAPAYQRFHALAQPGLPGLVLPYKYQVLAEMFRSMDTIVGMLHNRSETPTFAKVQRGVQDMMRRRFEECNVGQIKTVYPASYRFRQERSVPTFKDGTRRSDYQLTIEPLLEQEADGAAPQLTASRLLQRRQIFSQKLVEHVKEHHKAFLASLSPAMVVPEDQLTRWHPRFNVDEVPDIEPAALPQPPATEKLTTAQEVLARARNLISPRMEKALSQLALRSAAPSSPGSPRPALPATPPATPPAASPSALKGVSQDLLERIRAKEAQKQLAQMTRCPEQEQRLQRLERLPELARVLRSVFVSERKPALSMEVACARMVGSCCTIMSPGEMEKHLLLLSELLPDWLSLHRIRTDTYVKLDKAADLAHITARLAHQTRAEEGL
UniProt Q9BXI6: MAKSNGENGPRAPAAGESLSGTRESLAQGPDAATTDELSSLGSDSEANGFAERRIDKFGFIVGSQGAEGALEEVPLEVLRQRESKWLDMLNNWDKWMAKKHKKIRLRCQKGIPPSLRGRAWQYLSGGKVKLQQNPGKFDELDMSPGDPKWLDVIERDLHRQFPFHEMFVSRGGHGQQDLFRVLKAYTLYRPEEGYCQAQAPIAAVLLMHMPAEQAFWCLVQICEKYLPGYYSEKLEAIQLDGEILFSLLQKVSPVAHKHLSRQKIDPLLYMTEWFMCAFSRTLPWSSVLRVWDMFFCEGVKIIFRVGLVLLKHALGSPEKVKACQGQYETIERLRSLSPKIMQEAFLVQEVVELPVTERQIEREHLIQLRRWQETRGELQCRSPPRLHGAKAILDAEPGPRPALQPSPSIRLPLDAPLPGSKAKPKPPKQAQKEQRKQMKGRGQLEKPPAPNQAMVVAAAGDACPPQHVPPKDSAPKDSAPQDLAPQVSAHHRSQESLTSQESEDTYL
UniProt Q9H0H5: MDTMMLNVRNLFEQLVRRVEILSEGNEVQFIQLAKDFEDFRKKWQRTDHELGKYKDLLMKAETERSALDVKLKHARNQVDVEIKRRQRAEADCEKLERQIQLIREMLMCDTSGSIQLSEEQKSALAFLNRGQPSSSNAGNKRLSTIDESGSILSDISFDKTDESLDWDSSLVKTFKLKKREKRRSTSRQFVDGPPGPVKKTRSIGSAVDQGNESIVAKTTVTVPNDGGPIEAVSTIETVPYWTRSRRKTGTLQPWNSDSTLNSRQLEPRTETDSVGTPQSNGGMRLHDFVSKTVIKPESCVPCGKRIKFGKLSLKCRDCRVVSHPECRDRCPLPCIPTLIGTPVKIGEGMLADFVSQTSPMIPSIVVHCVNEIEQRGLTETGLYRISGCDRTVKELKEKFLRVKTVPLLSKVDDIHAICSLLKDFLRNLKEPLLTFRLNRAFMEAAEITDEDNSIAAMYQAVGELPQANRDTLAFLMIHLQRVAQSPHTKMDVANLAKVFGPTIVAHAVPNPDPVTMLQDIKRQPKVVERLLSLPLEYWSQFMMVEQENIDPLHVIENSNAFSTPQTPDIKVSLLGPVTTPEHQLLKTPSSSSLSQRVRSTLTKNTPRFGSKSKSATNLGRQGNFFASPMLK
UniProt Q9H3U5: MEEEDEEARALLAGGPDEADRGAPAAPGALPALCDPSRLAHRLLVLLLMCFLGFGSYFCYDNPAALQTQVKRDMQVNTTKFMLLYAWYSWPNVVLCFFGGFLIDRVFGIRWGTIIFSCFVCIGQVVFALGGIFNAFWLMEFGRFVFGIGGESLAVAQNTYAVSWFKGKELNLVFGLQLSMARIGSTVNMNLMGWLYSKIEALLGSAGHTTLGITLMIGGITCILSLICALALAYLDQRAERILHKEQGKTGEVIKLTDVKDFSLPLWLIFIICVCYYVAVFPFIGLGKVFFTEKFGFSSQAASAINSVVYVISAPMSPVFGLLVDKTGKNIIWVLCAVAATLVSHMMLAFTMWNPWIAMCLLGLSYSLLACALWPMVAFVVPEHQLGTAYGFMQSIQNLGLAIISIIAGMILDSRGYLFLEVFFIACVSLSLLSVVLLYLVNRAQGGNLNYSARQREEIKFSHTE
UniProt Q9BZE9, whole entry: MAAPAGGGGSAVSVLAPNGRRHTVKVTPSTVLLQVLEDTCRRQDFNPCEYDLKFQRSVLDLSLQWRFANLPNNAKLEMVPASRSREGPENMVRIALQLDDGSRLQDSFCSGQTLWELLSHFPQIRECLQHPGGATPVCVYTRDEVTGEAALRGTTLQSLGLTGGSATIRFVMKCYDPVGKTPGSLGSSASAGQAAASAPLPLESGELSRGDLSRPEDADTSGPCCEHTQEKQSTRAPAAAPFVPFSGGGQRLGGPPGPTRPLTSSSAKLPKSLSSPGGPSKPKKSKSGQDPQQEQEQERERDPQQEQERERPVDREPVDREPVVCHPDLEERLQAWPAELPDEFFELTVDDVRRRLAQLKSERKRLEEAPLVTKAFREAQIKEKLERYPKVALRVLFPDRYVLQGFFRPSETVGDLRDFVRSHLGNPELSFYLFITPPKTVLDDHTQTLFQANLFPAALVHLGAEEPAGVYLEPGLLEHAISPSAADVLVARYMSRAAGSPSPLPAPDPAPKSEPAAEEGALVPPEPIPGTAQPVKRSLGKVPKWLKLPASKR
UniProt Q9H098: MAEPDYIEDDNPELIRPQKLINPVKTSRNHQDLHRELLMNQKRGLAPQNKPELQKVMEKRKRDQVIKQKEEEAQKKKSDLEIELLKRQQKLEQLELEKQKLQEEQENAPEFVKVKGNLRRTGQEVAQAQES
UniProt Q9H040: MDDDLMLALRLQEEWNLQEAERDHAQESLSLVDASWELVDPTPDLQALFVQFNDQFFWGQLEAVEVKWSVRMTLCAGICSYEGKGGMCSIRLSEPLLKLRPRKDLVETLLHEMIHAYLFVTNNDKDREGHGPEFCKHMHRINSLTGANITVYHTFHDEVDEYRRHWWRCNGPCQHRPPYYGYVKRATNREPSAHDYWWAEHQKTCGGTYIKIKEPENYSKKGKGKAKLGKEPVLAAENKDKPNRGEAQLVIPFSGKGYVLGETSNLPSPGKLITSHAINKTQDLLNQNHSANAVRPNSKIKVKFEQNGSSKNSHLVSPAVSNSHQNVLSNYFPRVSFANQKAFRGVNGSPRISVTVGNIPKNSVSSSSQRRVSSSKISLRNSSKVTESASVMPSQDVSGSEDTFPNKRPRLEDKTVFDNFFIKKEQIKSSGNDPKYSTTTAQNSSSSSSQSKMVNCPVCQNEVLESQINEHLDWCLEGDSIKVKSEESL
UniProt Q9H0J9: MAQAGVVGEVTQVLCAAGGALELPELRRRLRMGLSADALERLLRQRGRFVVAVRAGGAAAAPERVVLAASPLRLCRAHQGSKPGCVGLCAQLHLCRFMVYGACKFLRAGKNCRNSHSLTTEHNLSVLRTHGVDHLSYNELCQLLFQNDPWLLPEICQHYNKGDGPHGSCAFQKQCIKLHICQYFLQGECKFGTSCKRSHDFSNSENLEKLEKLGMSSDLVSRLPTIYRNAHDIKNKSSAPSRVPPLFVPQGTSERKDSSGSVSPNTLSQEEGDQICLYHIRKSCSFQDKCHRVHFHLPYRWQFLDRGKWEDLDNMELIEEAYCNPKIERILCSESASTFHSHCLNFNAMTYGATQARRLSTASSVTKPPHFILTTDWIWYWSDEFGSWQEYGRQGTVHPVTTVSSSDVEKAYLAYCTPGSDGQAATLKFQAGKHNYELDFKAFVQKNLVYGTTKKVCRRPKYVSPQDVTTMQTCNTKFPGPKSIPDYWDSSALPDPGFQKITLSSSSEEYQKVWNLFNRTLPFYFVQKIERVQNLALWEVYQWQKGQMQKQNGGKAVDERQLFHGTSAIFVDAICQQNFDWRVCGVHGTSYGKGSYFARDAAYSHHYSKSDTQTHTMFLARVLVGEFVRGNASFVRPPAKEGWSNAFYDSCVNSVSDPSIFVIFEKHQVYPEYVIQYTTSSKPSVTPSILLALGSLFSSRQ
UniProt Q9H0G5: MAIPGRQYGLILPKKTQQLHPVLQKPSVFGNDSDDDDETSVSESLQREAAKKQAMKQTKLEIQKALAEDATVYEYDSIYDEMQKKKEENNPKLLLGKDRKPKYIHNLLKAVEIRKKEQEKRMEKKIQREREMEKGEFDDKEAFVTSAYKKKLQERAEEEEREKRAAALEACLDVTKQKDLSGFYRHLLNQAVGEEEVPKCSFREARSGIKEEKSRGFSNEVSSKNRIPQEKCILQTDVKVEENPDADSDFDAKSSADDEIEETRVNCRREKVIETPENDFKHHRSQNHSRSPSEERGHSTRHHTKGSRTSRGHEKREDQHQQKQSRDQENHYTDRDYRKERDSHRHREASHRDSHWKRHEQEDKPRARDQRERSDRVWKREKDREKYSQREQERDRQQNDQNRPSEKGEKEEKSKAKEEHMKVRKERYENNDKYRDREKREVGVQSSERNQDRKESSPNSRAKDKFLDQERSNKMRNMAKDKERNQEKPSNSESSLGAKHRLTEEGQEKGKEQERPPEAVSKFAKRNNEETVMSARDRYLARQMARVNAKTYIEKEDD
UniProt Q9GZP4: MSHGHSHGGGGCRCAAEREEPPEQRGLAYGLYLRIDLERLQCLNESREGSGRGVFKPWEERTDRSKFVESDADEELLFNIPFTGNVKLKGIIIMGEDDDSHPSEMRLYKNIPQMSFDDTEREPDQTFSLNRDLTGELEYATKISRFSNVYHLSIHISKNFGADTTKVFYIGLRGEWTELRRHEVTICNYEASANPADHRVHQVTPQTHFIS

Some of the results follow. Most entries show no effect beyond the scatter of the controls.

Compound in this test: CN[C@@H]1C[C@H]2O[C@@](C)([C@@H]1OC)n1c3ccccc3c3c4c(c5c6ccccc6n2c5c31)C(=O)NC4 [staurosporine]
In words: log2 fold change of tryptic peptide abundance, ligand vs vehicle (limited proteolysis) (log2 ratio); higher = more trypsin-susceptible (destabilized). As to conditions: ligand concentration: 20 uM; sample: K562 cleared lysate; digestion: 4 min, 22 C (HT-PELSA RT4min, Orbitrap Astral).
As to “IKZF4 (peptide sequence: DLEMVPDSMLHSSSERPTFIDR, peptide start residue: 294) (UniProt Q9H2S9)”, the log2 fold change was -0.14.

In the case of “STMN4 (peptide sequence: MESNKENR, peptide start residue: 149) (UniProt Q9H169)”, the log2 fold change was found to be 0.574. As for “CLPB (peptide sequence: LDMSEFQER, peptide start residue: 409) (UniProt Q9H078)”, the figure is 0.299. With “RBM4 (peptide sequence: TAPGMGDQSGCYRCGK, peptide start residue: 152) (UniProt Q9BWF3)”, the log2 fold change is -0.642. Turning to “GTPBP4 (peptide sequence: LALGQINIAK, peptide start residue: 94) (UniProt Q9BZE4)”, the log2 fold change is 0.116. As for “ACBD3 (peptide sequence: DCHEEVYAGSHQYPGR, peptide start residue: 486) (UniProt Q9H3P7)”, the figure is -0.411.

On to “MRPL13 (peptide sequence: VYSSHTGYPGGFR, peptide start residue: 76) (UniProt Q9BYD1)”, for which the log2 fold change was found to be 0.0834. With “TBC1D2 (peptide sequence: TQNCFLNSEIHQVTK, peptide start residue: 466) (UniProt Q9BYX2)”, the log2 fold change was -0.603. Regarding “MND1 (peptide sequence: EVLQSLVDDGMVDCER, peptide start residue: 49) (UniProt Q9BWT6)”, the log2 fold change is -0.259. On to “VPS33B (peptide sequence: VENKPALSSNEQLCFLVRPR, peptide start residue: 69) (UniProt Q9H267)”, for which the log2 fold change was -1.09. Regarding “PARD6B (peptide sequence: LLEEDGTIITL, peptide start residue: 362) (UniProt Q9BYG5)”, the log2 fold change is -0.276. As to “CDT1 (peptide sequence: SAAPSSPGSPR, peptide start residue: 386) (UniProt Q9H211)”, the log2 fold change came out at 0.271. With “TBC1D10A (peptide sequence: WLDMLNNWDKWMAK, peptide start residue: 86) (UniProt Q9BXI6)”, the log2 fold change turned out to be 0.324. On to “RACGAP1 (peptide sequence: QGNFFASPMLK, peptide start residue: 622) (UniProt Q9H0H5)”, for which the log2 fold change came to 0.095.

Regarding “LSM14B (peptide sequence: KLNFKDDK, peptide start residue: 274) (UniProt Q9BX40)”, the log2 fold change is 0.597. For the target “MFSD1 (peptide sequence: ALLAGGPDEADR, peptide start residue: 10) (UniProt Q9H3U5)”, the log2 fold change was 0.0183. As for “BRIP1 (peptide sequence: ISDQHTLQTFQGMCK, peptide start residue: 319) (UniProt Q9BX63)”, the log2 fold change was determined as 0.619. As to “UniProt Q9GZT3 (peptide sequence: LPQTSDDEKK, peptide start residue: 98)”, the log2 fold change came to 0.195. For “ASPSCR1 (peptide sequence: FANLPNNAKLEMVPASR, peptide start residue: 67) (UniProt Q9BZE9)”, the log2 fold change was found to be 0.285. As for “CYREN (peptide sequence: METLQSETK, peptide start residue: 1) (UniProt Q9BWK5)”, the log2 fold change amounted to 0.24. For “FAM107B (peptide sequence: KSDLEIELLKR, peptide start residue: 77) (UniProt Q9H098)”, the log2 fold change amounted to 0.405.

In the case of “SPRTN (peptide sequence: NSHLVSPAVSNSHQNVLSNYFPR, peptide start residue: 312) (UniProt Q9H040)”, the log2 fold change is -0.456.

Turning to “RAB3GAP2 (peptide sequence: TVKPLSLFDSK, peptide start residue: 1175) (UniProt Q9H2M9)”, the log2 fold change turned out to be 0.428. As to “PARP12 (peptide sequence: VVLAASPLR, peptide start residue: 65) (UniProt Q9H0J9)”, the log2 fold change was 0.447.

With “UniProt Q9H0G5 (peptide sequence: NQEKPSNSESSLGAK, peptide start residue: 485)”, the log2 fold change is -0.266. As for “HELZ2 (peptide sequence: ELLDESQK, peptide start residue: 1077) (UniProt Q9BYK8)”, the figure is -0.288; as for “UniProt Q9GZP4 (peptide sequence: HEVTICNYEASANPADHR, peptide start residue: 182)”, -0.198; as for “INTS2 (peptide sequence: LLLPCLVR, peptide start residue: 44) (UniProt Q9H0H0)”, 0.07.
